Measurements from patent EP2119434A1, “Use of heterosidic flavonoid derivatives for therapy of stem cell cancers” (INSTITUT NATIONAL DE LA SANTE ET DE LA RECHERCHE MEDICALE …, priority 2008, dated 2009).
At least one structure is not confirmed: it was looked up by name or label, or the drawing left a doubt.

Columns and labels:
Type in all cases: cell-based
GSK3β = experiment: Inhibition of anti-apoptotic signalling pathway GSK3β
[1] = test system: leukemic cells from AML patients; experiment: Adhesion and cytotoxic assay, Annexin V/PI labelling, patient leukemic cells
Foxo3A = experiment: Inhibition of anti-apoptotic signalling pathway Foxo3A
HL-60 = experiment: Adhesion and cytotoxic assay, HL-60; details: HL-60 cell line (Fig. 3B)
KG1 = experiment: Adhesion and cytotoxic assay, KG1; details: KG1 cell line (Fig. 3B)

C[C@@H]1O[C@@H](OC[C@H]2O[C@@H](Oc3c(-c4ccc(O)c(O)c4)oc4cc(O)cc(O)c4c3=O)[C@H](O)[C@@H](O)[C@@H]2O)[C@H](O)[C@H](O)[C@H]1O [rutin]
inhibition of GSK3β (GSK3β): inhibited | apoptosis of adherent immature leukemic cells (CD34+) ([1]; adherent CD34+ leukemic cells, by contrast with normal CD34+ cells (Fig. 3C)): strikingly committed to apoptosis | injury of adherent cells from AML patients ([1]; adherent cells (Fig. 3C)): mostly injured | AML patients responsive with a specific decrease of cell survival upon adhesion ([1]; cells of three AML patients): two were responsive | inhibition of Foxo3A (Foxo3A): inhibited | cell killing (HL-60): killed efficiently | cell killing (KG1): killed efficiently
